Assay results published in publication PMC8213057, “Targeting ALK2: An Open Science Approach to Developing Therapeutics for the Treatment of Diffuse Intrinsic Pontine Glioma” (Journal of Medicinal Chemistry, 2020).

Tests used:
[1] = biological target: c-Kit (Homo sapiens, UniProt P10721); details: 1 μM; Run 1, Run 2
[2] = biological target: CAMK2g (Homo sapiens, UniProt Q13555); details: 1 μM; Run 1, Run 2
[3] = biological target: CDK18/cyclin Y (PCTK3) (Homo sapiens, UniProt Q07002); details: 1 μM; Run 1, Run 2
[4] = biological target: CDK19/cyclin C (Homo sapiens, UniProt Q9BWU1); details: 1 μM; Run 1, Run 2
[5] = biological target: CDK2/cyclin E (Homo sapiens, UniProt P24941); details: 1 μM; Run 1, Run 2
[6] = biological target: CDK4/cyclin D1 (Homo sapiens, UniProt P11802); details: 1 μM; Run 1, Run 2
[7] = biological target: CDK9/cyclin T2 (Homo sapiens, UniProt P50750); details: 1 μM; Run 1, Run 2
[8] = biological target: CK2a2 (Homo sapiens, UniProt P19784); details: 1 μM; Run 1, Run 2
[9] = biological target: DRAK1/STK17A (Homo sapiens, UniProt Q9UEE5); details: 1 μM; Run 1, Run 2
[10] = biological target: EPHA6 (Homo sapiens, UniProt Q9UF33); details: 1 μM; Run 1, Run 2
[11] = biological target: GRK1 (Homo sapiens, UniProt Q15835); details: 1 μM; Run 1, Run 2
[12] = biological target: IRAK1 (Homo sapiens, UniProt P51617); details: 1 μM; Run 1, Run 2
[13] = biological target: JNK3 (Homo sapiens, UniProt P53779); details: 1 μM; Run 1, Run 2
[14] = biological target: KSR1 (Homo sapiens, UniProt Q8IVT5); details: 1 μM; Run 1, Run 2
[15] = biological target: KSR2 (Homo sapiens, UniProt Q6VAB6); details: 1 μM; Run 1, Run 2
[16] = biological target: LIMK1 (Homo sapiens, UniProt P53667); details: 1 μM; Run 1, Run 2
[17] = biological target: MAPKAPK3 (Homo sapiens, UniProt Q16644); details: 1 μM; Run 1, Run 2
[18] = biological target: MAPKAPK5/PRAK (Homo sapiens, UniProt Q8IW41); details: 1 μM; Run 1, Run 2
[19] = biological target: NEK1 (Homo sapiens, UniProt Q96PY6); details: 1 μM; Run 1, Run 2
[20] = biological target: NEK2 (Homo sapiens, UniProt P51955); details: 1 μM; Run 1, Run 2
[21] = biological target: NEK6 (Homo sapiens, UniProt Q9HC98); details: 1 μM; Run 1, Run 2
[22] = biological target: PHKg2 (Homo sapiens, UniProt P15735); details: 1 μM; Run 1, Run 2
[23] = biological target: PKCtheta (Homo sapiens, UniProt Q04759); details: 1 μM; Run 1, Run 2
[24] = biological target: RSK2 (Homo sapiens, UniProt P51812); details: 1 μM; Run 1, Run 2
[25] = biological target: RSK3 (Homo sapiens, UniProt Q15349); details: 1 μM; Run 1, Run 2
[26] = biological target: SRMS (Homo sapiens, UniProt Q9H3Y6); details: 1 μM; Run 1, Run 2
[27] = biological target: SSTK/TSSK6 (Homo sapiens, UniProt Q9BXA6); details: 1 μM; Run 1, Run 2
[28] = biological target: STK32C/YANK3 (Homo sapiens, UniProt Q86UX6); details: 1 μM; Run 1, Run 2
[29] = biological target: STK38/NDR1 (Homo sapiens, UniProt Q15208); details: 1 μM; Run 1, Run 2
[30] = biological target: TLK2 (Homo sapiens, UniProt Q86UE8); details: 1 μM; Run 1, Run 2
[31] = biological target: ULK3 (Homo sapiens, UniProt Q6PHR2); details: 1 μM; Run 1, Run 2
[32] = biological target: CK1G3 (Homo sapiens, UniProt Q9Y6M4); test: biochemical; details: read-out: % enzyme activity, 1 μM; Run 1, Run 2
[33] = biological target: DAPK1 (Homo sapiens, UniProt P53355); test: biochemical; details: read-out: % enzyme activity, 1 μM; Run 1, Run 2
[34] = biological target: GLK/MAP4K3 (Homo sapiens, UniProt Q8IVH8); test: biochemical; details: read-out: % enzyme activity, 1 μM; Run 1, Run 2
[35] = biological target: MKK7 (Homo sapiens, UniProt O14733); test: biochemical; details: read-out: % enzyme activity, 1 μM; Run 1, Run 2
[36] = biological target: MLK2/MAP3K10 (Homo sapiens, UniProt Q02779); test: biochemical; details: read-out: % enzyme activity, 1 μM; Run 1, Run 2
[37] = biological target: MYLK3 (Homo sapiens, UniProt Q32MK0); test: biochemical; details: read-out: % enzyme activity, 1 μM; Run 1, Run 2
[38] = biological target: NEK11 (Homo sapiens, UniProt Q8NG66); test: biochemical; details: read-out: % enzyme activity, 1 μM; Run 1, Run 2
[39] = biological target: PHKg1 (Homo sapiens, UniProt Q16816); test: biochemical; details: read-out: % enzyme activity, 1 μM; Run 1, Run 2
[40] = biological target: PKA (Homo sapiens, UniProt P17612); test: biochemical; details: read-out: % enzyme activity, 1 μM; Run 1, Run 2
[41] = biological target: PKCd (Homo sapiens, UniProt Q05655); test: biochemical; details: read-out: % enzyme activity, 1 μM; Run 1, Run 2
[42] = biological target: SIK1 (Homo sapiens, UniProt P57059); test: biochemical; details: read-out: % enzyme activity, 1 μM; Run 1, Run 2
[43] = biological target: WNK2 (Homo sapiens, UniProt Q9Y3S1); test: biochemical; details: read-out: % enzyme activity, 1 μM; Run 1, Run 2

SMILES: COc1cc(-c2cncc(-c3ccc(N4CCN(C(C)C)CC4)cc3)c2C)cc(F)c1C(N)=O [Compound 26b, 2-Fluoro-4-(5-(4-(4-isopropylpiperazin-1-yl)phenyl)-4-methylpyridin-3-yl)-6-methoxybenzamide]
- % enzyme activity [1]: 76.90%
- % enzyme activity [2]: 96.27%
- % enzyme activity [3]: 100.66%
- % enzyme activity [4]: 82.07%
- % enzyme activity [5]: 104.69%
- % enzyme activity [6]: 99.89%
- % enzyme activity [7]: 102.02%
- % enzyme activity [8]: 91.24%
- % enzyme activity [9]: 96.54%
- % enzyme activity [10]: 101.59%
- % enzyme activity [11]: 93.08%
- % enzyme activity [12]: 100.16%
- % enzyme activity [13]: 95.11%
- % enzyme activity [14]: 92.67%
- % enzyme activity [15]: 96.38%
- % enzyme activity [16]: 76.31%
- % enzyme activity [17]: 97.50%
- % enzyme activity [18]: 95.81%
- % enzyme activity [19]: 93.20%
- % enzyme activity [20]: 91.46%
- % enzyme activity [21]: 100.11%
- % enzyme activity [22]: 95.06%
- % enzyme activity [23]: 95.99%
- % enzyme activity [24]: 97.24%
- % enzyme activity [25]: 99.21%
- % enzyme activity [26]: 97.08%
- % enzyme activity [27]: 107.83%
- % enzyme activity [28]: 90.70%
- % enzyme activity [29]: 88.77%
- % enzyme activity [30]: 94.99%
- % enzyme activity [31]: 93.28%
- remaining activity at 1 µM [32]: 71.5%
- remaining activity at 1 µM [33]: 98.5%
- remaining activity at 1 µM [34]: 83.9%
- remaining activity at 1 µM [35]: 100%
- remaining activity at 1 µM [36]: 115%
- remaining activity at 1 µM [37]: 103%
- remaining activity at 1 µM [38]: 92%
- remaining activity at 1 µM [39]: 96.7%
- remaining activity at 1 µM [40]: 98%
- remaining activity at 1 µM [41]: 93.4%
- remaining activity at 1 µM [42]: 88.5%
- remaining activity at 1 µM [43]: 98.9%
